Our source for the binding values is paper PMC4047118, “BM-1197: A Novel and Specific Bcl-2/Bcl-xL Inhibitor Inducing Complete and Long-Lasting Tumor Regression In Vivo” (PLoS ONE, 2014).

Sequences of proteins named here, by UniProt entry; tags and fusion partners are left off. A change or cut given only in a name is not applied to a line headed by its entry.
UniProt Q64373: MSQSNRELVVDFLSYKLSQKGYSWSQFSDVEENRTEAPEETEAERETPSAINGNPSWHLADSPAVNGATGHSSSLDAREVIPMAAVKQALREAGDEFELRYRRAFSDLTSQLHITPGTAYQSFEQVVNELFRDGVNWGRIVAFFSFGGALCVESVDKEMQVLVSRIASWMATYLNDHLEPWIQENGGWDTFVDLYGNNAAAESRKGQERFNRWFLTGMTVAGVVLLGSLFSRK

No constants are given. Whether binding was seen depends on the method and setting. In cells and extracts the contact can be indirect. Some entries that bind do so weakly or less than the wild type.

The target in assay [1] is T1, Puma (mouse, MCL1-/- MEF cells) (mouse (endogenous in MEF)) (UniProt Q99ML1).
T1 sequence: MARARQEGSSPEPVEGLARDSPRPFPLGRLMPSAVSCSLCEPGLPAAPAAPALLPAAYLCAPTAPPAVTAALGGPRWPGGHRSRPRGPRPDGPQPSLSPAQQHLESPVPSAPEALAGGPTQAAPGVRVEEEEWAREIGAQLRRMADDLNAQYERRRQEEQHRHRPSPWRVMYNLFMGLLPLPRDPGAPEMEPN
Briefly: co-IP; endogenous proteins; MCL1-/- MEF cells treated with DMSO or BM-1197 (50 nM), lysed with CHAPS buffer (150 mM NaCl, 10 mM HEPES pH 7.4, 0.5% Chaps); immunoprecipitation with the indicated antibodies, immunoblot.

Assay [2] has as its target Bcl-xL (mouse, MCL1-/- MEF cells) (mouse (endogenous in MEF)) (UniProt Q64373). The description is as above.

For “Bcl-xL (mouse, MCL1-/- MEF cells) (from UniProt Q64373-1 1-233)”, the binding entry in assay [1] is “binds”.

B1: Puma (mouse, MCL1-/- MEF cells) (protein, UniProt Q99ML1 1-193)
chain: T1 sequence
Turning to B1, the binding entry in assay [2] is recorded as “binds”.
